Laboratory results published in the supplement of paper PMC3334620.
In all, about 33,000 sequences were measured (“E-score (-0.5 to 0.5)”: median about -0.016, highest 2% from about 0.3 on). Some of the results follow.

What follows are sequences tested against T1, Yer184c (UniProt P39961) (assay: PBM E-score (8-mer binding enrichment) (E-score (-0.5 to 0.5)); higher = stronger / more preferred TF binding). Details: protein concentration: 100 nM; construct: GST-full length.
T1 sequence: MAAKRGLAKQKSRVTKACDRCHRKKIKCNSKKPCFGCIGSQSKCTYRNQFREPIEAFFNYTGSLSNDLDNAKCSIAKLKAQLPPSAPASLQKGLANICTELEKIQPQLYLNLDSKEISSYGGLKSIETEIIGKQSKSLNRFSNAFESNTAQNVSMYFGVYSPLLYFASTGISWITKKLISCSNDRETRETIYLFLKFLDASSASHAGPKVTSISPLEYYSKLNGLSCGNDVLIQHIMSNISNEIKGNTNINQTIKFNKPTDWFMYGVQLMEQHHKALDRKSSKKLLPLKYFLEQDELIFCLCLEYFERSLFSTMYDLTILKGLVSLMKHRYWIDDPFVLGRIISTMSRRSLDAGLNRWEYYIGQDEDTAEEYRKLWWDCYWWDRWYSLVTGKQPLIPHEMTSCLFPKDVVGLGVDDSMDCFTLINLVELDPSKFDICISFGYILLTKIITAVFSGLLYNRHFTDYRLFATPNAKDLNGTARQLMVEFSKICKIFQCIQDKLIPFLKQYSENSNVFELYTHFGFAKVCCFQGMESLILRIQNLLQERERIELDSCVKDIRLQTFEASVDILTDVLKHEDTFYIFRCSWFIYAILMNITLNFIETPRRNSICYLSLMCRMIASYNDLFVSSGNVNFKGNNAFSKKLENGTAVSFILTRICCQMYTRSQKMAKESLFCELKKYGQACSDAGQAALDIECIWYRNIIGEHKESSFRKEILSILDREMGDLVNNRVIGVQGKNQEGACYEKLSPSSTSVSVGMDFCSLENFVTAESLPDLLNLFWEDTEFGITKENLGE
How it was run: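 Using PURExpress in vitro transcription/translation, GST-tagged yeast transcription factors were made in full-length or DNA-binding-domain form. These were applied at about 100-200 nM to double-stranded universal all-10-mer Agilent arrays, and bound protein was detected with fluorescent anti-GST. Scans were normalised with masliner before the Universal PBM Analysis Suite assigned E-scores to ungapped eight-base words pooled with their reverse complements.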

Row | Sequence | PBM E-score
1 | GAAACCGC | 0.22
2 | AATGTTGG | -0.0323
3 | ATTTAACG | 0.239
4 | AAGGGCCT | -0.258
5 | CGTAGCCC | -0.227
6 | ATCGATTA | 0.0997
7 | GCACTACA | -0.142
8 | ACGTATCT | -0.217
9 | CCAATGCC | -0.0639
10 | ACTCCTAG | -0.174
11 | ATGACACC | -0.18
12 | TCGGAACA | 0.408
13 | GGGGCTGA | -0.303
14 | GAGCGTCC | -0.246
15 | AATGGACG | 0.0643
16 | AGAGTCGC | -0.122
17 | CGGTACAC | 0.041
18 | GACTGATA | -0.151
19 | AGCTCCGC | 0.127
20 | AACAAGAC | 0.105
21 | ACTAACGC | -0.0148
22 | CTGATGTC | 0.106
23 | ACTGAACC | 0.197
24 | AACGGCGA | 0.299
25 | GGGCATCA | -0.114

Row | Sequence | PBM E-score
26 | TAGTTCCA | 0.193
27 | CACTGGGA | -0.181
28 | AATATCTG | 0.0878
29 | AATGGTGC | 0.0479
30 | AGGGGGGA | -0.379
31 | ATTCTTCA | 0.0675
32 | CTATTAAA | 0.21
33 | CCTGGCAC | -0.199
34 | AATTAGTG | 0.124
35 | GAATCCCA | -0.0522
36 | TCGTTCAA | 0.0681
37 | CGGAGTCA | 0.0567
38 | AGTATAAC | -0.0238
39 | CAGGGCCG | 0.0897
40 | CAACCCTC | -0.174
41 | ATTGCTGC | 0.0432
42 | GGTTAACA | 0.187
43 | CCCGGCTA | 0.206
44 | CAAAAAGC | 0.153
45 | CGCGCGGC | 0.289
46 | ATCTTAAC | 0.114
47 | AACAATTC | 0.102
48 | AGGTTTAG | -0.14
49 | ATTGTCCA | 0.143
50 | TATCCCGA | 0.151

Row | Sequence | PBM E-score
51 | CAGGTCTC | -0.181
52 | ATCATAAC | 0.191
53 | GGATCTTA | 0.043
54 | CTAGAAGC | -0.192
55 | CCAGTAGA | -0.165
56 | AGCATTCG | -0.114
57 | ACCTTAGA | -0.0545
58 | AGAAGCTG | -0.0592
59 | ACAGATTA | -0.0539
60 | AGGATGCC | -0.0165
61 | AGTAGAAC | -0.0614
62 | ACGCAAAA | 0.0726
63 | CCCCTACA | -0.323
64 | AGTTTCAT | 0.133
65 | GCAGCATA | -0.141
66 | CCACCGCA | -0.116
67 | TACATTCA | 0.0249
68 | TACAGACA | 0.13
69 | CCTTCCGA | 0.227
70 | GGTTTTAC | -0.0929
71 | CCCGCGCA | 0.0139
72 | TGACGACA | 0.126
73 | ATCTTGTG | -0.0568
74 | AAGGAAGT | 0.19
75 | CATAACCG | 0.093

Row | Sequence | PBM E-score
76 | CCCCGGCC | 0.0277
77 | ATCCTCAG | 0.0632
78 | CGCCTCGA | 0.0701
79 | AACAAAGC | 0.242
80 | CCGCCGCC | 0.0576
81 | AATTGGAG | -0.179
82 | GCAAGCAA | 0.0281
83 | CATGCGAC | -0.0765
84 | CAAATTTA | 0.119
85 | ACTCGTCC | 0.04
86 | GAGCACAA | 0.0865
87 | AACGGTAG | -0.118
88 | GCACTGGC | -0.192
89 | ATGCTTAC | -0.216
90 | CTTCGAAG | 0.132
91 | GATCGTGC | -0.0697
92 | GAAAAGCA | 0.0693
93 | CACCAGAC | -0.00896
94 | AGTGTGGA | 0.00846
95 | ATACCCAC | -0.0253
96 | ATTCGACG | 0.0394
97 | TATTCAAA | 0.288
98 | GACGAAAC | 0.121
99 | ACATTCCC | -0.0347
100 | ACAGATGT | -0.0749

Row | Sequence | PBM E-score
101 | GCGCGCGA | 0.213
102 | AGTCGACT | 0.172
103 | ACTTGGAG | -0.279
104 | AGGTTTGC | 0.0145
105 | ACTATGGC | -0.152
106 | GGTGCGCA | 0.0342
107 | AAGCGGTA | -0.117
108 | ACGCGAGG | -0.153
109 | CCTCTATC | -0.123
110 | GCTTCACC | -0.00787
111 | CTCATCAG | 0.0399
112 | AGGATTTA | 0.0332
113 | AGGACCGA | 0.0382
114 | CAGCGTGA | -0.138
115 | TCTCCCAA | 0.0611
116 | ATGTTTAG | 0.117
117 | AGTGTCAT | -0.0666
118 | AAGATAAA | 0.197
119 | CAGTTCAC | 0.0247
120 | AGAGGCAC | -0.166
121 | CACACAAA | 0.071
122 | GTGCGCGA | -0.0661
123 | ATTAACAG | 0.0231
124 | ATATTGTG | -0.153
125 | GTCAGCTA | -0.174

Row | Sequence | PBM E-score
126 | GTATGGCA | -0.179
127 | CAGTATCA | -0.191
128 | ATGCCACG | -0.207
129 | CACTTGTA | -0.0668
130 | TAACTGAA | -0.186
131 | TTAGAAAA | 0.141
132 | ACTTTTCG | 0.192
133 | CTGAGCTA | -0.237
134 | GCAGTGCA | -0.0176
135 | ACCACGGA | 0.107
136 | CGCTGATA | -0.0148
137 | ACGGCTGG | 0.00884
138 | AGGTACGG | -0.1
139 | ACAGGCGG | -0.00977
140 | CAGAGTAG | -0.183
141 | ATGACATG | -0.178
142 | ACGACAAG | -0.218
143 | GACAGTCC | -0.0645
144 | CTTCGAGA | -0.0739
145 | GTCAAAAA | 0.18
146 | AAAGTGAC | -0.0309
147 | CCTAGTCA | -0.369
148 | TAAATATA | 0.283
149 | ACTGGCCT | -0.0993
150 | GCTTGGCA | -0.209

Row | Sequence | PBM E-score
151 | CATGTGTC | -0.0846
152 | CCCAGAGA | -0.186
153 | AATATACC | 0.0935
154 | ACCATACC | -0.198
155 | ATGAACCA | 0.125
156 | ATCAGCAT | 0.0011
157 | ACGAGGAG | -0.091
158 | AAGTGGGC | 0.0443
159 | AAAAGTTT | 0.0149
160 | CGACCTCA | -0.0717
161 | CCCTACGA | -0.206
162 | TGCGAGAA | -0.117
163 | CCTACTAA | -0.0122
164 | ACTTATCG | 0.00695
165 | CCGGTTCC | 0.256
166 | CGAGCCCG | 0.112
167 | CCGTGGAA | 0.17
168 | CCTGGCAG | -0.144
169 | CCCTAACC | -0.239
170 | ACTGCAAA | 0.0905
171 | TATGCTGA | 0.0602
172 | ACTCCTAC | -0.0541
